Results deposited as PubChem BioAssay AID1259254 (NCATS, 2017)

Purpose: 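Gene knock-downs that lead to re-replication, shown by excess G2 DNA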 (primary screen)
System: human HCT116 colorectal cancer cells
Reagents: single siRNA against human genes
Time to read-out: 3 days
Measured: 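Nuclei stained with Hoechst and imaged; cell-cycle phase assigned by DNA content; G2 share scaled per plate, non-targeting siRNA 0%, GMNN siRNA 100%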
Scale: G2 robust z-score and G2 cells, % of GMNN control: higher = more G2 cells, more excess DNA replication; raw share of cells in G2: higher = larger share of cells with G2 DNA content
Rule for the call: 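An siRNA counts as active if its G2 robust z-score lies at least 5 MADs above the screen median; here such calls match roughly 38% of GMNN control or more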
The whole screen tested about 59,000 reagents; this is a random part of them. Over the whole deposit, about 1,550 (2.6%) got an active call. 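G2 share is only a proxy for re-replication; each gene was hit by three separate siRNAs, and active genes were retested.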 The raw values are shown without normalisation. Entries without a mark were called inactive. Not stated in the record: the amount of reagent.

no.	target gene	PubChem SID	G2 robust z-score	G2 cells, % of GMNN control	raw share of cells in G2 (%)
1	MIB1	SID160746205	3.95	30.8	15.4
2	MIB1	SID160746206	1.84	15.9	12.2
3	MIB1	SID160746207	-0.524	-0.723	4.09
4	OTULINL	SID160741779	0.849	8.94	6.8
5	OTULINL	SID160741780	-0.569	-1.03	3.84
6	OTULINL	SID160741781	-0.988	-3.98	1.88
7	CD209	SID160739542	-0.453	-0.223	3.77
8	CD209	SID160739543	-0.082	2.39	5.45
9	CD209	SID160739544	-0.248	1.22	3.64
10	DGAT2L7P	SID160733983	0.976	9.83	6.16
11	DGAT2L7P	SID160769855	-0.268	1.08	4.19
12	DGAT2L7P	SID160769856	1.08	10.5	7.14
13	FBLN7	SID160756894	-1.08	-4.61	2.44
14	FBLN7	SID160756895	-0.315	0.75	3.34
15	FBLN7	SID160756896	-0.149	1.92	3.28
16	PHLPP2	SID160735289	-1.07	-4.56	3.2
17	PHLPP2	SID160735290	-0.712	-2.05	3.29
18	PHLPP2	SID160735291	0.218	4.5	4.86
19	ZNF703	SID160724562	-0.387	0.242	2.44
20	ZNF703	SID160750091	-0.126	2.08	5.31
21	ZNF703	SID160750093	-0.532	-0.773	3.97
22	CATSPER3	SID160765009	6.45 (active)	48.3	22.9
23	CATSPER3	SID160765010	1.7	14.9	9.82
24	CATSPER3	SID160765011	-0.632	-1.48	3.8
25	PDGFRA	SID160714034	-1.1	-4.79	4.03
26	PDGFRA	SID160714035	-0.368	0.381	5.54
27	PDGFRA	SID160714036	-0.879	-3.22	2.89
28	REXO1	SID160745994	1.08	10.6	8.09
29	REXO1	SID160745995	-1.16	-5.19	2.34
30	REXO1	SID160745996	-0.0567	2.57	6.71

Look-ups from above.
MIB1 [SID160746207], G2 cells, % of GMNN control → -0.723
PHLPP2 [SID160735291], raw share of cells in G2 (%) → 4.86
